# Test results as given in ChEMBL document CHEMBL2203022, “Design, synthesis and antimicrobial evaluation of novel 1-benzyl 2-butyl-4-chloroimidazole embodied 4-azafluorenones via molecular hybridization approach” (2012).
# Columns and labels:
# Assay type in all cases: functional
# Staphylococcus aureus = assay: Antibacterial activity against Staphylococcus aureus MTCC 1430 at 10 ug per disk after 24 hrs by disc diffusion method
# How it was run: (§1)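 Standard 0.5 McFarland inoculum spread evenly over nutrient agar plates with a sterile L-shaped glass spreader. Plates incubated 24 h at 37 °C. Gentamicin as reference standard. Read-out: zone of inhibition in mm, measured in triplicate and compared with control and standard.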
# Escherichia coli = assay: Antibacterial activity against Escherichia coli MTCC 1573 at 10 ug per disk after 24 hrs by disc diffusion method; how it was run: as §1
# Pseudomonas aeruginosa = assay: Antibacterial activity against Pseudomonas aeruginosa MTCC 2453 at 10 ug per disk after 24 hrs by disc diffusion method; how it was run: as §1
# Candida albicans = assay: Antifungal activity against Candida albicans MTCC 7253 at 10 ug per disk after 2 to 3 days by disc diffusion method
# How it was run: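 Fungal inoculum: a loopful of each strain suspended in saline, spread evenly on yeast extract potato dextrose agar with a sterile glass spreader. Sterile 5 mm discs loaded with test compound in DMSO placed on the agar. Plates incubated 2–3 days at room temperature. Nystatin as reference standard. Zones of inhibition measured and compared with control and standard.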
Sequence,inhibition zone (IZ) (Staphylococcus aureus),inhibition zone (IZ) (Escherichia coli),inhibition zone (IZ) (Pseudomonas aeruginosa),inhibition zone (IZ) (Candida albicans)
GENTAMICIN,15 mm,12 mm,15 mm,–
NYSTATIN,–,–,–,8 mm
